No constants are given. Whether binding was seen depends on the method and setting. In cells and extracts the contact can be indirect. Some entries that bind do so weakly or less than the wild type. Sequences can lack the tags named with a protein.
Target: T1, EGFP-NRF2 (human) (UniProt Q16236)
T1 sequence: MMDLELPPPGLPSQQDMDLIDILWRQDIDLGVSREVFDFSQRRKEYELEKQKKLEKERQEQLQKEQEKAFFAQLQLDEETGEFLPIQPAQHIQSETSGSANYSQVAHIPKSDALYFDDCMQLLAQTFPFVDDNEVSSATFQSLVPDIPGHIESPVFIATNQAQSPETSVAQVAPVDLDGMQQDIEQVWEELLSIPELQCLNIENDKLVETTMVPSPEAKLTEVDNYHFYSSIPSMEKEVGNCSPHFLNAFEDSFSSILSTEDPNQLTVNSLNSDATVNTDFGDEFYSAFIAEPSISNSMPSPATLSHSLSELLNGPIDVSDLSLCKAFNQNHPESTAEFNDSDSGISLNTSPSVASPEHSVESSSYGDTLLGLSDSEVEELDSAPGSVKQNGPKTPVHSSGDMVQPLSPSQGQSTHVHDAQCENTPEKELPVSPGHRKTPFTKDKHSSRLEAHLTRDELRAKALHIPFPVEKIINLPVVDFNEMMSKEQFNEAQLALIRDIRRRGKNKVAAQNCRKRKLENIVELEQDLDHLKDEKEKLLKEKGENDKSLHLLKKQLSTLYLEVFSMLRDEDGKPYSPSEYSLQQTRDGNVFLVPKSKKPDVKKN
Experiment: co-IP; HeLa cells co-transfected with EGFP-NRF2 and Myc-SPBP, harvested 20 hours post transfection; EGFP-NRF2 precipitated with Chromotek GFP-Trap; western blot

Amino acid sequences for entries named in this document (tags omitted).
UniProt Q9UGU0: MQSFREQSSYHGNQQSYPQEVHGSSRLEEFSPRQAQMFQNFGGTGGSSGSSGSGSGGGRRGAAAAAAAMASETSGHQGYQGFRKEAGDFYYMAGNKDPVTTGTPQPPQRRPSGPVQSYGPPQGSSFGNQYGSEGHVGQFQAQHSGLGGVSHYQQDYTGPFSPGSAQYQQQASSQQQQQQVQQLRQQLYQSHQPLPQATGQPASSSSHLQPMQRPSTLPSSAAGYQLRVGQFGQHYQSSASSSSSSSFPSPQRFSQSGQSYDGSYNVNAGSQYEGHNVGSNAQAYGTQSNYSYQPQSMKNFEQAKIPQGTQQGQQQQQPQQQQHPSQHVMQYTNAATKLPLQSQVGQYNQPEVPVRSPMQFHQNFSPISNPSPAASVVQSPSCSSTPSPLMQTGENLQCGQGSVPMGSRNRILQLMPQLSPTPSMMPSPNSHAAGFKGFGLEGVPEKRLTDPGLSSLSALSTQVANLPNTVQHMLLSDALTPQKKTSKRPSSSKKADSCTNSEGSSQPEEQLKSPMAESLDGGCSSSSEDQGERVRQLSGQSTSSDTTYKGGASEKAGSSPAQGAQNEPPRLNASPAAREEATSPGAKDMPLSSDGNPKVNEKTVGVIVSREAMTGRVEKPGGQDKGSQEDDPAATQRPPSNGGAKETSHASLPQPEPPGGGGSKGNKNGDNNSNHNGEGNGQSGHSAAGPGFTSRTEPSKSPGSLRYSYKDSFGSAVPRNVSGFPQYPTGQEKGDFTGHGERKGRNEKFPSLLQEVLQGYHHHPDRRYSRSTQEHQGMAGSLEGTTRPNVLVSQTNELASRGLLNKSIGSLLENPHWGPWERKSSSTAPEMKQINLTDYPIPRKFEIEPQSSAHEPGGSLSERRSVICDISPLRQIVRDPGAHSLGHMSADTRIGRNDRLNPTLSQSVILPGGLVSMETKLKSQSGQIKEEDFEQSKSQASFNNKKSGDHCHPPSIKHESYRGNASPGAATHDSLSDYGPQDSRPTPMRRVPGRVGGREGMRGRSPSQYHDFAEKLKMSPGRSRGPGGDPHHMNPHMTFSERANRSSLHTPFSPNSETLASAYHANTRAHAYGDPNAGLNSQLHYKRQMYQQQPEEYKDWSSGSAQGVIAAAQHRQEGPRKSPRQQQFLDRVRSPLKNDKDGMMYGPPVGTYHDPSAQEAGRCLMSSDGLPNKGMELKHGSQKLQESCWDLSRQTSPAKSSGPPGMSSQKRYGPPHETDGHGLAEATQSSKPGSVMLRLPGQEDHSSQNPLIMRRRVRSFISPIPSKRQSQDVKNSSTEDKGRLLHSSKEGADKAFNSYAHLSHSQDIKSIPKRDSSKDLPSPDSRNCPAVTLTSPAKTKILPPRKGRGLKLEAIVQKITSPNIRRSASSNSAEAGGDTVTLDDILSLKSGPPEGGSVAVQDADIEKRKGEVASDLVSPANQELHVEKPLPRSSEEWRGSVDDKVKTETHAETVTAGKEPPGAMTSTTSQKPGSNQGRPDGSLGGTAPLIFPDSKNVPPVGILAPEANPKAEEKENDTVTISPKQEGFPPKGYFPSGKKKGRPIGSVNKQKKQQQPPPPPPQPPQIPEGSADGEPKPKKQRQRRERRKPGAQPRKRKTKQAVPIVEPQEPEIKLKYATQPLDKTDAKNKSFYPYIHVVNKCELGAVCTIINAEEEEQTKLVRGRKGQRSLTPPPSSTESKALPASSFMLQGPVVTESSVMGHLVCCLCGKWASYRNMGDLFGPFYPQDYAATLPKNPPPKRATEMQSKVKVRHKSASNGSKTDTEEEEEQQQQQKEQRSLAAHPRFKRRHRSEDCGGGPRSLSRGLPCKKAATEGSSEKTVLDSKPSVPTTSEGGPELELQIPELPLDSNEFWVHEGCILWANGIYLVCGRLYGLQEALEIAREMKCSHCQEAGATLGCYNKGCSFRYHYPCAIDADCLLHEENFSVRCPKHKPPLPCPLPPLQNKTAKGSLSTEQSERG

binding: binds weakly
Substance: Myc-SPBP (from UniProt Q9UGU0 1-1960)

Source: publication PMC3887019
